{
  "sequences": {"note": "Chains of the proteins cited; added tags and fusions are not shown.", "UniProt Q8VDD5": "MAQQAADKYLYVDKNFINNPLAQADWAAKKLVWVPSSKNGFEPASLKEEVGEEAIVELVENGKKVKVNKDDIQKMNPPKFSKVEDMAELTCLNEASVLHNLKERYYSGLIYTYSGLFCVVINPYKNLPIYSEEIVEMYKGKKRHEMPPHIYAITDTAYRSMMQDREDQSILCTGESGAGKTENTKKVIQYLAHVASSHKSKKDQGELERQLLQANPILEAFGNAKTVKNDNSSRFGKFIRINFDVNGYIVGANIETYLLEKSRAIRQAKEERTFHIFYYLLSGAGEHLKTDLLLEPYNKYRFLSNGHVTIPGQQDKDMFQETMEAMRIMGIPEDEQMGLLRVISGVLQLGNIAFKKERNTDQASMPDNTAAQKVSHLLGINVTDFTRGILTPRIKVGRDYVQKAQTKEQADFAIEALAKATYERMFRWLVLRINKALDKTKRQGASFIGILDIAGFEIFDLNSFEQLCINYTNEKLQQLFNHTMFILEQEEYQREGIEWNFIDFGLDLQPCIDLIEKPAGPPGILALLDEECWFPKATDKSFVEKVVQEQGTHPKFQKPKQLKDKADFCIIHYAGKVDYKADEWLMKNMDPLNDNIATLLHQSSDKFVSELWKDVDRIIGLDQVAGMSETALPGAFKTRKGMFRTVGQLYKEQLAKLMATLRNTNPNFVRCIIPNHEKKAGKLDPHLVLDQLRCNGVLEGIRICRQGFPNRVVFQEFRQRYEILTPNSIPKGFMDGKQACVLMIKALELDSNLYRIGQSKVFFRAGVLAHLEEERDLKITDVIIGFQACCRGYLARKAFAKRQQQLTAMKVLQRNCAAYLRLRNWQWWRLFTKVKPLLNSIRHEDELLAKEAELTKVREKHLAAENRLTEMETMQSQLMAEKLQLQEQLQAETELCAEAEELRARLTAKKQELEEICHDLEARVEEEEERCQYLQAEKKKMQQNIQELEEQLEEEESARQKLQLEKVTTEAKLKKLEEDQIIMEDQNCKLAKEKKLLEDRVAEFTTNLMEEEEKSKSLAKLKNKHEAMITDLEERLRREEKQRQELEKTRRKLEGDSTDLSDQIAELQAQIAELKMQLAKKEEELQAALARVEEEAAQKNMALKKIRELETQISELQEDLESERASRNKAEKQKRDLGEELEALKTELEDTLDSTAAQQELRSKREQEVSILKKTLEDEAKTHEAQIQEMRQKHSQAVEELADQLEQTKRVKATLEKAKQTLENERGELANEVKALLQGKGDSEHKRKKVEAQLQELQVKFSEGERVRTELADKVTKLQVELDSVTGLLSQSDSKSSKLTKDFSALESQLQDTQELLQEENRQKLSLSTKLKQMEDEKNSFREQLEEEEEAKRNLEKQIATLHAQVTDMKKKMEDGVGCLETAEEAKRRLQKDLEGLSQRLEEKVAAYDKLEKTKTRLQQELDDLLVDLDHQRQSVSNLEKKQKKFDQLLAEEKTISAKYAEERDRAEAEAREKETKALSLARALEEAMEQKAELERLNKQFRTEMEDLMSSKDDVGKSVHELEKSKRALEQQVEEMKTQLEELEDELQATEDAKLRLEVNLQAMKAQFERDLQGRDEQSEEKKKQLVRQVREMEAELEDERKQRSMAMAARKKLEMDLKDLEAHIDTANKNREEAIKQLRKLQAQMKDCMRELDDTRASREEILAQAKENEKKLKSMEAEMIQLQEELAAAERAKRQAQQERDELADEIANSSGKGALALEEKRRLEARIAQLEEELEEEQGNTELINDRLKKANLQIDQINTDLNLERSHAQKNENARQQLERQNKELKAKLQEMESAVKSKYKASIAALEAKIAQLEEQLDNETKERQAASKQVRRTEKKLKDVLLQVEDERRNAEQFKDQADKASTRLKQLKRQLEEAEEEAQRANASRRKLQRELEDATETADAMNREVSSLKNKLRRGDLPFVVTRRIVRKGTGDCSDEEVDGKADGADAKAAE"},
  "source": "paper PMC4491822",
  "biological_target": "myosin IIA heavy chain-GFP (knock-in) (mouse) (UniProt Q8VDD5)",
  "assay": "proximity ligation; Duo-Link in situ (Olink) on immature mouse DCs fixed and permeabilised in microchannels; rabbit anti-GFP or anti-γTubulin with rat anti-Ii; signal quantified as mean intensity of the whole cell",
  "note": "No constants are given. Whether binding was seen depends on the method and setting. In cells and extracts the contact can be indirect. Some entries that bind do so weakly or less than the wild type.",
  "data": [
    {"binder": "MHC class II-associated invariant chain (Ii), mouse (protein, UniProt P04441-2 1-215) MDDQRDLISNHEQLPILGNRPREPERCSRGALYTGVSVLVALLLAGQATTAYFLYQQQGRLDKLTITSQNLQLESLRMKLPKSAKPVSQMRMATPLLMRPMSMDNMLLGPVKNVTKYGNMTQDHVMHLLTRSGPLEYPQLKGTFPENLKHLKNSMDGVNWKIFESWMKQWLLFEMSKNSLEEKKPTEAPPKEPLDMEDLSSGLGVTRQELGQVTL", "values": [
      {"measurement": "binding", "value": "binds"}
    ]}
  ]
}
